Publication PMC9483092
Results are given in words; binding and its absence hold for the method and conditions named. In cells and extracts the contact can be indirect. Some entries that bind do so weakly or less than the wild type. Sequences can lack the tags named with a protein.

Sequences of proteins named here, by UniProt entry; tags and fusion partners are left off. A change or cut given only in a name is not applied to a line headed by its entry. A line that says so, or that is headed by a name, gives the form on record, which may keep a tag or linker.
DYK-tagged transmembrane serine protease 13 (TMPRSS13) stably expressed in HEK cells (HEK-T) (Q9BYE2-6, form named): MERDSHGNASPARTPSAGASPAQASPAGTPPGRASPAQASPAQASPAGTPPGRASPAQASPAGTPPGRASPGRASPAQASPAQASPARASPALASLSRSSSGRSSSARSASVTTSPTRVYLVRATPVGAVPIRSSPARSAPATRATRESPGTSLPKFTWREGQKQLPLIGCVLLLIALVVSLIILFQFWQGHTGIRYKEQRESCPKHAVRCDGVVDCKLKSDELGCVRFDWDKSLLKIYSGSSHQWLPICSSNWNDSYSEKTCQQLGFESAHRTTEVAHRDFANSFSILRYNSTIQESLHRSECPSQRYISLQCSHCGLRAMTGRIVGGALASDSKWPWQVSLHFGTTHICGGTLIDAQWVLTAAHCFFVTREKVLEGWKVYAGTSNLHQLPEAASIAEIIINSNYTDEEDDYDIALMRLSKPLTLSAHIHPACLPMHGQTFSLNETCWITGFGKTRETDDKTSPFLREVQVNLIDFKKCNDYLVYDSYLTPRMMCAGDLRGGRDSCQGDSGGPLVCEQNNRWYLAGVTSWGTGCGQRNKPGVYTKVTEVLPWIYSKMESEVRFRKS

T1: Myc-tagged recombinant human IL4I1 from inducible HEK cells (concentrated conditioned PBS) (human) (UniProt Q96RQ9)
T1 sequence: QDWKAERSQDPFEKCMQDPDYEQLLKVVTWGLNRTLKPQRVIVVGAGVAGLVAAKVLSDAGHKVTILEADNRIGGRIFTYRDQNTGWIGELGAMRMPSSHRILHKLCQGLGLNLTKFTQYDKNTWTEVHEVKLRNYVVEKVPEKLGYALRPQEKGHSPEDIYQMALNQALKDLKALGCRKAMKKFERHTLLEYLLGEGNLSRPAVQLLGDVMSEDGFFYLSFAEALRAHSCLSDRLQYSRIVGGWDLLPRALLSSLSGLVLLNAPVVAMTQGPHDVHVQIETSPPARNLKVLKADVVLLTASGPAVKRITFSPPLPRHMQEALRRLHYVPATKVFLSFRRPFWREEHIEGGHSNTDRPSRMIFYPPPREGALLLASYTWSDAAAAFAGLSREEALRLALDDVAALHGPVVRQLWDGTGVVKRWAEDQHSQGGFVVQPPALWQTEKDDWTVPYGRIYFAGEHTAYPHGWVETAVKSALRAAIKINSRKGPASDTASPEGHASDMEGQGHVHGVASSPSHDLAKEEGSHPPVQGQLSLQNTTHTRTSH


How the values were obtained:
[1] = molecular target: T1, Myc-tagged recombinant human IL4I1 from inducible HEK cells (concentrated conditioned PBS) (human); assay: co-IP; HEK or HEK-T cells incubated 1 h on ice with concentrated Myc-tagged IL4I1 (10000 U/well), 10 washes, lysed (50 mM Tris HCl pH 7.5, 150 mM NaCl, 2 mM EDTA, 0.5% Triton X100); precipitated with anti-DYK (TMPRSS13) or, in reverse, with anti-IL4I1 antibodies; western blot
[2] = molecular target: DYK-tagged transmembrane serine protease 13 (TMPRSS13) stably expressed in HEK cells (HEK-T) (human) (UniProt Q9BYE2); assay: as above

Molecule | binding [1] | binding [2]
DYK-tagged transmembrane serine protease 13 (TMPRSS13) stably expressed in HEK cells (HEK-T) (from UniProt Q9BYE2-6 1-567) (enzyme) | binds | –
Myc-tagged recombinant human IL4I1 from inducible HEK cells (concentrated conditioned PBS) (enzyme, UniProt Q96RQ9-1 22-567) QDWKAERSQDPFEKCMQDPDYEQLLKVVTWGLNRTLKPQRVIVVGAGVAGLVAAKVLSDAGHKVTILEADNRIGGRIFTYRDQNTGWIGELGAMRMPSSHRILHKLCQGLGLNLTKFTQYDKNTWTEVHEVKLRNYVVEKVPEKLGYALRPQEKGHSPEDIYQMALNQALKDLKALGCRKAMKKFERHTLLEYLLGEGNLSRPAVQLLGDVMSEDGFFYLSFAEALRAHSCLSDRLQYSRIVGGWDLLPRALLSSLSGLVLLNAPVVAMTQGPHDVHVQIETSPPARNLKVLKADVVLLTASGPAVKRITFSPPLPRHMQEALRRLHYVPATKVFLSFRRPFWREEHIEGGHSNTDRPSRMIFYPPPREGALLLASYTWSDAAAAFAGLSREEALRLALDDVAALHGPVVRQLWDGTGVVKRWAEDQHSQGGFVVQPPALWQTEKDDWTVPYGRIYFAGEHTAYPHGWVETAVKSALRAAIKINSRKGPASDTASPEGHASDMEGQGHVHGVASSPSHDLAKEEGSHPPVQGQLSLQNTTHTRTSH | – | binds
